This is an account of results in publication PMC11781671.

In the experiment the target is T1, Flag-tagged CRYAB (exogenous) (human) (UniProt P02511).
T1 sequence: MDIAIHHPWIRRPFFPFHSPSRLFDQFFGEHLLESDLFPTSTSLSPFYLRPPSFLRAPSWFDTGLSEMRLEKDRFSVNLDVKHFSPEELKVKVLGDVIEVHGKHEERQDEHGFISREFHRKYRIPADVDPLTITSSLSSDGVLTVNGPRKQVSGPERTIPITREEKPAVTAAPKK
Description: co-IP; Huh7 cells co-transfected with a Flag-tagged host protein plasmid and an HBx plasmid; MG132 for the last 12 h; precipitated with anti-Flag beads.

Results are given in words; binding and its absence hold for the method and conditions named. Binding seen in cells or lysates may run through a third protein. Binding calls can cover weak binding; strength is not graded here. Where a sequence is shown, tags or fusion partners need not be part of it.

For “EGFP-HBx (wild type HBx of HBV genotype B fused downstream of EGFP) (Hepatitis B virus genotype B)”, the binding result is “binds”.

Regarding “EGFP-HBx(delC) (HBx lacking the C-terminal domain, fused downstream of EGFP) (Hepatitis B virus genotype B) (domain or fragment)”, the binding entry is recorded as “no binding”.
